Experimental data as given in publication PMC7561103.
The exact form of at least one protein or probe is not confirmed. For some assays here: A weaker result is weaker than the reference pair of the same experiment. For some assays here: The direction of at least one scale is not stated here.

Amino acid sequences for entries named in this document (tags omitted). Residues count along the entry.
UniProt P31266, 53-474: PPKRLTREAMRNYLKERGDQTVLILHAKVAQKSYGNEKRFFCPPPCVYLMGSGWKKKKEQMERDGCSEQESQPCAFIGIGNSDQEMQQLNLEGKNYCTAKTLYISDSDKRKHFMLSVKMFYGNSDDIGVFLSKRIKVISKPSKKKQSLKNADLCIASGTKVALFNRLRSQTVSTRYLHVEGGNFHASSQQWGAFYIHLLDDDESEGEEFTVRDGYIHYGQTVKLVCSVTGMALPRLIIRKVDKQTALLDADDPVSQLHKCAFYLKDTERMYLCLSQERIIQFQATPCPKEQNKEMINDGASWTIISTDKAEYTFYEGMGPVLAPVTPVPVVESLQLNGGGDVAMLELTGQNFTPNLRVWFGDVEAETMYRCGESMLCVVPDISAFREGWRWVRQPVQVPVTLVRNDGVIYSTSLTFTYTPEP

How the values were obtained:
Test in all cases: EMSA
[1] = test system: RBPj (CSL) + N1RAICD (Notch1 RAM-ANK R1974A) + SMT3-MAML1; settings: N1RAICD and MAML 2 uM, RBPj 2.5-640 nM, EMSA on native polyacrylamide gel, probes 1.75 nM each (mixed), RBPj 2.5-640 nM in 4-fold steps, N1ICD and MAML 2 uM, recombinant protein, protein details: SMT3 fusion
[2] = test system: RBPj (CSL) + N1ICD (Notch1 RAM-ANK) + SMT3-MAML1; settings: N1ICD and MAML 2 uM, RBPj 2.5-640 nM, EMSA on native polyacrylamide gel, probes 1.75 nM each (mixed), RBPj 2.5-640 nM in 4-fold steps, recombinant protein, protein details: SMT3 fusion
[3] = biological target: RBPj (CSL) (Mus musculus) (UniProt P31266); settings: RBPj alone, 2.5-640 nM, 1-site state never depleted at high RBPj; EMSA on native polyacrylamide gel; probes 1.75 nM each (mixed), RBPj 2.5-640 nM in 4-fold steps, N1ICD and MAML 2 uM; recombinant protein; residues 53-474

“CGAACGTGGGAAACCTAGGCTAGAGGCACCGTGGGAAACTAGTGCGGGCGTGGCT (double strand) [2xCSL]”: binds ([1]; no cooperative binding); binds ([2]; no cooperative binding); binds [3].
“GCTACGTGGGAAAGGAGCAAACTGCGTTTCCCACGTTCGTAGTGCGGGCGTGGCT (double strand) [1xSPS]” was tested, and the binding result ([1]; binds, but no cooperative binding to second site) was “binds more weakly” and the binding signal ([2]; cooperativity factor: second site bound 5-fold stronger than first) was 5 fold.
